# Results are given in words; binding and its absence hold for the method and conditions named. Binding seen in cells or lysates may run through a third protein. Some binding calls cover weakened binding; strength is not graded here.
# Amino acid sequences for entries named in this document (tags omitted).
# UniProt P10085: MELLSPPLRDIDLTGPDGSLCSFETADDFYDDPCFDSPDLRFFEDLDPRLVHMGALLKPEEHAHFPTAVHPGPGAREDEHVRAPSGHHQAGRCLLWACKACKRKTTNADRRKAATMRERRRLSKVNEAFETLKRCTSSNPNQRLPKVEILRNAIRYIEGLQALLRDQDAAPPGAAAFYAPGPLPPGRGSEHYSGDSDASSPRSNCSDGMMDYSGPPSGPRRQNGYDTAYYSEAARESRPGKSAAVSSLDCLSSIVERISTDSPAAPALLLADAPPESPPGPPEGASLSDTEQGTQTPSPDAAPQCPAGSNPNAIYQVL
# Biological target: MyoD (UniProt P10085)
# Assay: co-IP; full-length TAF3 and KK-TAF3 with MyoD (Figure S7C)
binder,measurement,value
"full-length WT-TAF3 (protein, UniProt Q5HZG4 1-932) MCESYSRSLLRVSVAQICQALGWDSVQLSACHLLTDVLQRYLQQLGRGCHRYSELYGRTDPILDDVGEAFQLMGVNLHELEDYIHNIEPVTFPHQIPSFPVSKNNVLQFPQPGSKDAEERKDYIPDYLPPIVSSQEEEEEEQVPTDGGTSAEAMQVPLEEDDEMEEEEVINDENFLGKRPLDSPEVEEMPSMKRPRLLSTKGDSLDVVLLEAREPLSSINPQKTPPVLSPVRVQDRADLAPPSPQPPMLAPFAKSQLPIAKPLETKSFTPKTKTKASSPGQKTKSPKAALSPARLGSPIRSPKTIPKEKKSPGRSKSPKSPKSPKIVAHVPQTPVRPETPNRTPSAMVVEKTVKETIPVMKPTQTPPEVVKLNIEMQPKKPVVTDKTIDDSIDAVIARACAEREPDPFEFSSGSESEGDTFTSPKRISGSECATPKASTSSNNFTKSLATPLPLSSGTSSSDNSWTMDASIDEVVRKAKLGAPSNMPPTFPYISSPSISPPTPEPLHKGYEEKAKLPSSVDVKKKLKKELKTKLKKKEKQRDRERERERNKERSKEKDKMREREKEKEAGKELKYPWRELMKDEDSDPYKFKIKEFEDIDAAKVRLKDGIVRREREKHKDKKKDRERSKREKDKRERERLKEKNREDKIKAPPTQLVLPPKEMALPLFSPSAVRVPAMLPAFSPMLPEKLFEEKEKPKEKERKKDKKEKKKKKEKEKEKEKKEREREKERREREKREKEKEKHKHEKIKVEPVIPAPSPVIPRLTLRVGAGQDKIVISKVVPAPEAKPAPSLNRPKTPPPAPVPIPVRVSPTPLQPPLLTQAAVCPALMPSPAPALSGIGSAKAPVRSVVTETVSTYVIRDEWGNQIWICPGCNKPDDGSPMIGCDDCDDWYHWPCVGIMAAPPEEMQWFCPKCANKIKKDKKHKKRKHRAH",binding,binds

# From publication PMC4429956
